Experimental data reported in US12084522B2, “Peptides, combination of peptides, and cell based medicaments for use in immunotherapy against urinary bladder cancer and other cancers” (Immatics Biotechnologies GmbH, priority 2016, dated 2024).

The substances below were run on mRNA of source genes in urinary bladder cancer versus panel of normal tissues (assay: Expression profiling of genes encoding the peptides (RNAseq)). Details: not given.
Parameters: species or system human; key: very highly over-expressed in tumors compared to a panel of normal tissues (+++); highly over-expressed in tumors compared to a panel of normal tissues (++); over-expressed in tumors compared to a panel of normal tissues (+)

| Substance | Gene Expression (expression score of the source gene) |
| --- | --- |
| 3: peptide found in TACSTD2 (gene looked up) (YLDEIPPKFSM; listed as Homo sapiens) [compound 3] | ++ |
| 5: peptide found in ADGRG6 (gene looked up) (IQDPVIFYV; listed as Homo sapiens) [compound 5] | + |
| 6: peptide found in PPP1R13L (gene looked up) (SIVDFLITA; listed as Homo sapiens) [compound 6] | + |
| 21: peptide found in HPGD (gene looked up) (TLIEDDALNGA; listed as Homo sapiens) [compound 21] | ++ |
| 22: peptide found in SNCG (gene looked up) (SIAKEGVVGA; listed as Homo sapiens) [compound 22] | ++ |
| 76: peptide found in SNCG (gene looked up) (AVVSSVNTV; listed as Homo sapiens) [compound 76] | ++ |
| 85: peptide found in ITGB4 (gene looked up) (HLLDSKVPSV; listed as Homo sapiens) [compound 85] | ++ |
| 109: peptide found in IDH1 (gene looked up) (RLIDDMVAQA; listed as Homo sapiens) [compound 109] | + |
| 124: peptide found in CHMP4B (gene looked up) (QIDGTLSTI; listed as Homo sapiens) [compound 124] | + |
| 139: peptide found in ITGA3 (gene looked up) (LLYPTEITV; listed as Homo sapiens) [compound 139] | ++ |
| 142: peptide found in APOL1 (gene looked up) (FLGENISNFL; listed as Homo sapiens) [compound 142] | +++ |
| 149: peptide found in ADAM10 (gene looked up) (VLLRVLILL; listed as Homo sapiens) [compound 149] | ++ |

The substances below were run on primary urinary bladder cancer tissue samples (HLA-A*02-positive) versus panel of normal tissues (assay: Identification and relative quantitation of HLA-presented tumor associated peptides by LC-MS (presentation profiles/scores)). Details: 15 urinary bladder cancer samples, FIGS. 1A-1D.
Parameters: species or system human; key to Peptide Presentation: very highly over-presented on tumors compared to a panel of normal tissues (+++); highly over-presented on tumors compared to a panel of normal tissues (++); over-presented on tumors compared to a panel of normal tissues (+)

| Substance | peptide additionally detected on urinary bladder cancers (number of samples/15) |
| --- | --- |
| FVFEPPPGV (listed as Homo sapiens) [SEQ ID No. 113] | 2/15 |
| GLLKAYSIRTA (listed as Homo sapiens) [SEQ ID No. 2] | 3/15 |
| VLFNIDGQGNHV (listed as Homo sapiens) [SEQ ID No. 110] | 3/15 |
| YLDPSLNSL (listed as Homo sapiens) [SEQ ID No. 112] | 3/15 |

Same assay, conditions: presentation score: over-presentation on urinary bladder cancer tumors compared to a panel of normal tissues, label-free LC-MS

| Substance | Peptide Presentation |
| --- | --- |
| 3: peptide found in TACSTD2 (gene looked up) (YLDEIPPKFSM; listed as Homo sapiens) [compound 3] | +++ |
| 6: peptide found in PPP1R13L (gene looked up) (SIVDFLITA; listed as Homo sapiens) [compound 6] | +++ |
| 21: peptide found in HPGD (gene looked up) (TLIEDDALNGA; listed as Homo sapiens) [compound 21] | +++ |
| 119 (SLDEKQNLV; listed as Homo sapiens) [compound 119] | +++ |
| 120 (IIIPEIQKV; listed as Homo sapiens) [compound 120] | ++ |
| 121 (QLQGYLRSV; listed as Homo sapiens) [compound 121] | ++ |
| 122 (ILEPSLYTV; listed as Homo sapiens) [compound 122] | +++ |
| 123 (NLAGVYSEV; listed as Homo sapiens) [compound 123] | ++ |
| 124: peptide found in CHMP4B (gene looked up) (QIDGTLSTI; listed as Homo sapiens) [compound 124] | ++ |
| 125 (VLDEGSASV; listed as Homo sapiens) [compound 125] | ++ |
| 126 (SLLRVGWSV; listed as Homo sapiens) [compound 126] | ++ |
| 129 (YLEPKLTQV; listed as Homo sapiens) [compound 129] | ++ |
| 130 (TLTSKLYSL; listed as Homo sapiens) [compound 130] | + |
| 132 (YILEGEPGKV; listed as Homo sapiens) [compound 132] | ++ |
| 133 (GLDPLGYEIQL; listed as Homo sapiens) [compound 133] | + |
| 134 (IVAPGTFEV; listed as Homo sapiens) [compound 134] | + |
| 135 (FLLPLIIVL; listed as Homo sapiens) [compound 135] | +++ |
| 136 (GLSEPIFQL; listed as Homo sapiens) [compound 136] | +++ |
| 137 (ALFPHLLQPVL; listed as Homo sapiens) [compound 137] | ++ |
| 138 (YLTNEGIQYL; listed as Homo sapiens) [compound 138] | ++ |
| 139: peptide found in ITGA3 (gene looked up) (LLYPTEITV; listed as Homo sapiens) [compound 139] | +++ |
| 140 (ALLDGRVQL; listed as Homo sapiens) [compound 140] | ++ |
| 141 (SMFGAGLTV; listed as Homo sapiens) [compound 141] | + |
| 142: peptide found in APOL1 (gene looked up) (FLGENISNFL; listed as Homo sapiens) [compound 142] | +++ |
| 143 (TLVTGLASV; listed as Homo sapiens) [compound 143] | + |
| 146 (YLARIQGFQV; listed as Homo sapiens) [compound 146] | + |
| 147 (QMLELITRL; listed as Homo sapiens) [compound 147] | + |
| 149: peptide found in ADAM10 (gene looked up) (VLLRVLILL; listed as Homo sapiens) [compound 149] | + |

For some assays here: For expression read-outs the peptide stands for its source gene, whose mRNA was measured; the gene is not named for every peptide.
